Measured values taken from article PMC9025068, “DNA-Binding Properties of a Novel Crenarchaeal Chromatin-Organizing Protein in Sulfolobus acidocaldarius” (Biomolecules, 2022).
Where a protein sequence is shown, tags need not be part of it. For at least one entry, the source does not settle the construct or the ends of the probe. At least one verdict was read from the data and is not stated in words by the source.

Molecular target: T1, Sul12a (Sulfolobus acidocaldarius) (UniProt Q4JA12)
T1 sequence (looked up): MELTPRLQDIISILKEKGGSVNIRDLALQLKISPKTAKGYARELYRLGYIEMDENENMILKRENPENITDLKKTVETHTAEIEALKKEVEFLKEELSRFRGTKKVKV
Assay: EMSA
Settings: 20 mM Tris-HCl pH 8.0, 1 mM MgCl2, 0.1 mM DTT, 12.5% glycerol, 50 mM NaCl, 0.4 mM EDTA, 37 C 20 min, 0.1 nM 32P-DNA with 25 ug/mL salmon sperm DNA (radiolabelled EMSA), recombinant protein, residues 1-107, protein details: N-terminal His (pET-45b(+)), label: 5'-32P, probe letters rebuilt from the primers and the genome; for Kd: KDapp, salmon sperm DNA 25 ug/mL

TTATGCATTGGAAAGAGACGATATAAAGAAAACTCTAGATAAACTTGACGGATTGGATAAGGAGGTAATAGAACTTAAGCCTTCTGCCTCATTAAACACGTCAACAGAACAGTCAAATAAGAACGAGGGTAATAAGTCTGAAGTGTCTGTTCCAATACCAGTAAGGGTAATAAATACTTTATGAAGAATTAGTGACATAGGATGTTTGATAAGTTATCGATAATTTTTAATAGTGATAGAAAGAGAAAGGTGCATTTGTCCAAAGCGATAACTGAAATATCTTTAAAATTAAAAGAGCAGCAGGATAGATTAGACGAAGCAATAAGGAGATTAAGGG (double strand) [Enrichment probe 9 (F1), Saci_1374]
binding result (32 uM protein, single probe): binds
Kd (F1 + F2 mixture): 3.9 µM
Kd (F1 + F3 mixture): 2.3 µM
